Results published in PMC5103195.
No constants are given. Whether binding was seen depends on the method and setting. Binding seen in cells or lysates may run through a third protein. Some binding calls cover weakened binding; strength is not graded here.

Sequences of proteins named here, by UniProt entry; tags and fusion partners are left off.
UniProt Q03135: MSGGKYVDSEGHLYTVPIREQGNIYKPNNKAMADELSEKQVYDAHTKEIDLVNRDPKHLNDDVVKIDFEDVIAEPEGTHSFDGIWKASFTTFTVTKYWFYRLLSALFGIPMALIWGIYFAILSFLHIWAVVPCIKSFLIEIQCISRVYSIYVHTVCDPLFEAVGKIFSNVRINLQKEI
UniProt O15105: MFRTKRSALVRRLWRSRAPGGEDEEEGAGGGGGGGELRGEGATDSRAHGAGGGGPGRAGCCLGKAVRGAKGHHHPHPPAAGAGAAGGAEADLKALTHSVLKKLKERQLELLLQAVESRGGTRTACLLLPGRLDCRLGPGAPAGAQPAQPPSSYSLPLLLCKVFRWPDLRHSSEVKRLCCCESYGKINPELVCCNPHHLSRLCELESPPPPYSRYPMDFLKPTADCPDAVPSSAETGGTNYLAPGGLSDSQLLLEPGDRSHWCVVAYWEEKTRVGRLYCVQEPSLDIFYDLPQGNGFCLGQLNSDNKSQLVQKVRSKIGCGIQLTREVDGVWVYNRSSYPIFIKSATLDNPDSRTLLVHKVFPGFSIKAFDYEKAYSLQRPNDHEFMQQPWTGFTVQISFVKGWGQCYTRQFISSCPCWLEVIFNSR

Molecular target: T1, Transforming growth factor-β receptor I (TGFRI) (human (endogenous in MDA-MB-231)) (UniProt P36897)
T1 sequence: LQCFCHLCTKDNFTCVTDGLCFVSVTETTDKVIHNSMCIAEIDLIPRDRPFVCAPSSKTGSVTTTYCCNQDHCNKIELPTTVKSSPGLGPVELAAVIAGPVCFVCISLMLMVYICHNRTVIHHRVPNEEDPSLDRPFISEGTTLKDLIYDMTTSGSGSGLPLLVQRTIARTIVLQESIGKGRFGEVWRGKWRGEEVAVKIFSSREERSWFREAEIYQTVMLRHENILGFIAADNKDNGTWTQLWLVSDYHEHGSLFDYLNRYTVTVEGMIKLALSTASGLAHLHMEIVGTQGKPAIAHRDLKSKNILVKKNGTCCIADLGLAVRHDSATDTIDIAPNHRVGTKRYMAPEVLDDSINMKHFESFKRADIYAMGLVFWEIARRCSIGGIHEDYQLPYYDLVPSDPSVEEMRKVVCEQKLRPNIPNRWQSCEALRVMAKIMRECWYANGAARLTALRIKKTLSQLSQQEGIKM
Test: co-IP; whole cell lysates of MDA-MB-231 cells, untreated or treated with FFLZ (200 μg/ml) for 30 min (Fig. 5D) or 60 min (Fig. 5E); IP as indicated, then immunoblotting; endogenous proteins

In the case of Caveolin-1 (from UniProt Q03135 1-178), the binding is reported as “binds”.

For Smad7 (from UniProt O15105 1-426), the binding was “binds”.
